# Measured values taken from PubChem BioAssay AID652054 (National Center for Advancing Translational Sciences (NCATS), 2013).
# Sequences of proteins named here, by UniProt entry; tags and fusion partners are left off.
# UniProt P35462, whole entry, looked up: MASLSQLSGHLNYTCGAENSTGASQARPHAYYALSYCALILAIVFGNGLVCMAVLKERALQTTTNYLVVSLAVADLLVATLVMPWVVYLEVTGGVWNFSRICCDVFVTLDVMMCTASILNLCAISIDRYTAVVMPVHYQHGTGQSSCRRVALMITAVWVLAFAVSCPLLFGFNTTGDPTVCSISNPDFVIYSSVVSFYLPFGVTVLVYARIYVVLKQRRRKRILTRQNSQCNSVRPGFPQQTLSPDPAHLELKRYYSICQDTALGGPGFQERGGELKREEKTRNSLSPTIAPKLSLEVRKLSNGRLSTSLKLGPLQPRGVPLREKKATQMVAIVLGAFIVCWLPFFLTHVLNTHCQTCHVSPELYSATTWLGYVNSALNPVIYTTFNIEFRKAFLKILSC
# Among all 360,000 compounds or so, about 9,100 (2.5%) were called active. Inconclusive means that the source gave no clear call. Such entries were picked first, then a sample of the others. No stated cut-off is given here; in the data, active means max response below about -50%; inconclusive means no clear call, values can overlap the other calls; inactive means above that.
# Biological target: D(3) dopamine receptor (Homo sapiens) (UniProt P35462)
# Experiment: qHTS of D3 Dopamine Receptor Antagonist: qHTS
# Settings: D3R cells, DiscoveRx beta-arrestin luminescence, antagonist mode; active compounds read low
# How it was run: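 Cells plated overnight at 1500 cells/well, then exposed to library compounds with dopamine controls for 90 minutes at 37 degrees C. DiscoveRx reagent added for 30–60 minutes at room temperature; luminescence read, quantitative HTS format.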
# On the % scale 0 is the no-effect control and ±100 the full control effect.
row,Structure (SMILES),"max response, negative = inhibition"
1,COc1cc(CN2C[C@@H](CO)O[C@@H](n3cnc4c(Nc5ccccc5)ncnc43)C2)cc(OC)c1OC,inactive: 25.2%
2,CN(CCc1ccccc1)C1CCCN(S(=O)(=O)N(C)C)C1 (stereo unspecified),inconclusive: -31.2%
3,CC(C)C(=O)Nc1ccc(NC(=O)c2cccc(F)c2)cn1,inactive: -0.833%
4,CCN1CCN(C(=S)NCCc2ccccc2)CC1,inconclusive: -43.9%
5,COc1ccc(Cn2c(=O)[nH]c3cc(C(=O)NC4CCN(Cc5ccccc5)CC4)ccc32)cc1,active: -66.8%
6,C=C(C)[C@@H]1CC=C(CN2CCN(Cc3ccccc3)CC2)CC1,active: -65%
7,O=C(Oc1cccc(C(=S)N2CCOCC2)c1)c1ccc([N+](=O)[O-])cc1[N+](=O)[O-],active: -50.8%
8,COc1ccc(C(=O)C2CCCN(Cc3c[nH]c4ccccc34)C2)c(OC)c1 (stereo unspecified),active: -96%
9,CS(=O)(=O)N1Cc2ccccc2CC1C(=O)OCC(=O)NCCc1ccc(S(N)(=O)=O)cc1 (stereo unspecified),inconclusive: -30.4%
10,Cc1[nH]n(S(=O)(=O)c2ccccc2)c(=O)c1N=Nc1cccc(Cl)c1,inconclusive: -32.2%
11,COc1ccc(OCCCNCCc2ccccc2)cc1,active: -52.4%
12,COC(=O)C1CCCN1C(=O)c1cccs1 (stereo unspecified),active: -75.9%
13,O=c1c2ccccc2nnn1CSc1ncnc2ccccc12,inconclusive: -32.5%
14,COCCNCCOCCOc1ccc(Cl)c(C)c1,active: -51.8%
15,COc1ccccc1C(=O)Nc1ccon1,inconclusive: -46.5%
16,COc1ccc(Br)cc1/C=C/C(=O)Nc1ccc(C)cc1,active: -75.2%
17,C/C(Cl)=C/Cn1c(SCC(C)C)nc2c1c(=O)[nH]c(=O)n2C,inactive: -1.73%
18,O=C(C1=C(O)C(=O)N(CCN2CCOCC2)C1c1cccc([N+](=O)[O-])c1)c1cccs1 (stereo unspecified),inconclusive: -33.7%
19,CN(C)c1ccc(S(=O)(=O)NCC(=O)NCCOc2ccccc2F)cc1[N+](=O)[O-],inconclusive: -40.5%
20,CCc1ccc(/C=C/C(=O)C2C(=O)c3ccccc3C2=O)cc1,inconclusive: -34.8%
21,N#Cc1cccc(C(=O)C(=O)N2CCCN(Cc3ccc(F)cc3)CC2)c1,inconclusive: -43.1%
22,CC(=O)C1=CCC(c2cccs2)N(S(=O)(=O)c2ccc(C)cc2)C1 (stereo unspecified),inconclusive: -47.4%
23,O=C(CN1CCOCC1)N1CCN(S(=O)(=O)c2ccccc2)C1c1ccccc1 (stereo unspecified),inactive: 8.49%

row,Structure (SMILES),"max response, negative = inhibition"
1,Cc1c(Br)c([N+](=O)[O-])nn1CC(=O)Nc1ccc(Cc2ccncc2)cc1,inconclusive: -33.8%
2,CCCCOc1ccc(C2(C(=O)O)CCCC2)cc1,inactive: 43.8%
3,CCC(CC)c1nc2cc(OC)c(OC)cc2c(=O)o1,inconclusive: -44%
4,O=C(Nc1cccnc1)c1ccc(COc2cc(Cl)ccc2Cl)o1,inconclusive: -34.6%
5,CC1CN(c2ccc([N+](=O)[O-])c(NCCOc3ccc(Cl)cc3)c2)CC(C)N1 (stereo unspecified),inactive: -21.3%
6,CCc1c(C)c2c(C)nn(-c3ccccc3)c2[nH]c1=O,inactive: 23.1%
7,COc1cccc(CNC(=O)Cn2nc([N+](=O)[O-])c(Br)c2C)c1,inconclusive: -37.9%
8,O=C(NCc1ccccn1)c1cc(-c2ccccc2Cl)on1,inconclusive: -30.3%
9,Cc1ccc(Cn2c(SCCN3CCCCC3)nc3c2c(=O)[nH]c(=O)n3C)cc1,inactive: -17.9%
10,CCC(CC)c1nnc(NC(=O)c2c(C)nn(Cc3ccccc3Cl)c2C)s1,inconclusive: -37.9%
11,Cc1ccc(C)c(OCCCN2CCCC2)c1,inconclusive: -45.8%
12,CC(Cc1ccccc1)NC(=O)/C=C/c1ccc([N+](=O)[O-])cc1 (stereo unspecified),inactive: 3.04%
13,CNc1oc(-c2ccc(C)cc2)nc1P(=O)(c1ccccc1)c1ccccc1,inconclusive: -32.3%
14,COc1ccc(-c2cc(-c3ccc(N)cc3)nc(N)c2C#N)cc1OC,inactive: 23.8%
15,CC(=Nc1ccc(C)cc1)c1sc2ccccc2c1O,inconclusive: -34.2%
16,Cn1c2ccc(CC(=O)O)cc2c2cc(CC(=O)O)ccc21,inconclusive: -30.3%
17,Cn1c(=O)[nH]c(=O)c2c1nc(N1CCCCCC1)n2CCN1CCCCCC1,inconclusive: -43.4%
18,Cc1ccc2c(c1)C(=O)C(=O)N2Cc1ccc(F)cc1,inconclusive: -35.6%
19,CCC(C)[C@H](NC(=O)Nc1ccc(Oc2ccccc2)cc1)C(=O)O (stereo partly specified),inactive: 0.302%
20,O=C1C=C(N2CCCCC2)c2ccccc2C1=O,inactive: 5.65%
21,Cc1cc2c3nonc3ccc2n1-c1ccccc1,inconclusive: -35.5%
22,O=C(COC(=O)Cc1ccc(Br)cc1)NCC1CCCO1 (stereo unspecified),inactive: -3.42%
23,CCCCCCCNC1=CC(=O)CC(c2ccccc2)C1 (stereo unspecified),inactive: 0.651%

# Sorted by formula weight (rising): part of the list above
row,Structure (SMILES),"max response, negative = inhibition"
20,O=C1C=C(N2CCCCC2)c2ccccc2C1=O,inactive: 5.65%
18,Cc1ccc2c(c1)C(=O)C(=O)N2Cc1ccc(F)cc1,inconclusive: -35.6%
4,O=C(Nc1cccnc1)c1ccc(COc2cc(Cl)ccc2Cl)o1,inconclusive: -34.6%
7,COc1cccc(CNC(=O)Cn2nc([N+](=O)[O-])c(Br)c2C)c1,inconclusive: -37.9%
9,Cc1ccc(Cn2c(SCCN3CCCCC3)nc3c2c(=O)[nH]c(=O)n3C)cc1,inactive: -17.9%

# The list continues.

row,Structure (SMILES),"max response, negative = inhibition"
1,C=CCn1c(SCC(=O)NCc2ccccc2)nnc1C1CCCCC1,inconclusive: -49.3%
2,COc1ccc(NC(=S)NCCN2CCOCC2)c(OC)c1,inconclusive: -37.3%
3,NS(=O)(=O)c1ccc(NC(=O)c2ccc3c(c2)OCO3)cc1,inconclusive: -33.5%
4,CCOC(=O)C1=NN(c2ccccc2)C(=O)/C1=C\c1ccc(N(C)C)cc1,inconclusive: -30.6%
5,O=C(NCc1ccccc1)C1c2ccccc2OCC(=O)N1Cc1cccnc1 (stereo unspecified),active: -60.6%
6,O=C(NCCCn1ccnc1)c1ccc(N2CCCCCC2)c([N+](=O)[O-])c1,inconclusive: -39.1%
7,S=C(NCCc1ccccc1)N/N=C/c1c(Cl)cccc1Cl,inconclusive: -31.9%
8,Cc1occc1C(=O)N1CCN(C(c2ccccc2)c2ccccc2)CC1,inconclusive: -35.7%
9,O=C(c1ccc2c3n(nc2c1)-c1ccccc1CO3)N1CCCCC1,inconclusive: -32.9%
10,N#CCCn1cc(C=C(C#N)C#N)c(-c2ccc(Cl)cc2)n1,inconclusive: -47.3%
11,CC(C)CN1CCC(=O)N(CCSc2ccc(Br)cc2)CC1,inconclusive: -30.6%
12,CCCC(C)NCC(=O)Nc1ccccc1-c1ccccc1 (stereo unspecified),inconclusive: -46.6%
13,COc1ccccc1N1CCN(CC(O)COc2ccc3c(C)cc(=O)oc3c2)CC1 (stereo unspecified),active: -77.2%
14,CC1CC(C)CN(S(=O)(=O)c2ccc(NC(=O)CN3CCCCCC3)cc2)C1 (stereo unspecified),inactive: -12.6%
15,Cn1nnc(NC(=S)NC(=O)c2cccs2)n1,inconclusive: -33.1%
16,COc1ccc(Cl)cc1S(=O)(=O)NCc1nc2nc(C)cc(C)n2n1,inactive: 0%
17,C=CCN(CC=C)CC(O)CN(c1cc([N+](=O)[O-])ccc1OC)S(=O)(=O)c1ccccc1 (stereo unspecified),active: -84.1%
18,Nc1nc(N=Nc2ccc(O)cc2)cc(=O)[nH]1,active: -90.1%
19,Cc1ccc(C(NC(=O)N2CCCCC2)=C(Cl)Cl)cc1F,inconclusive: -36.9%
20,CCOc1cccc(SCc2noc(C(=O)NCC3CCCO3)c2C(=O)O)c1 (stereo unspecified),inconclusive: -35%
21,O=C(NCc1n[nH]c(=S)n1Cc1ccccc1)c1ccc(Cl)cc1Cl,inactive: -5.09%
22,COc1ccc(Cc2c(-c3ccc(F)cc3)nc3cc(C)c(Br)c(C)n23)c(C)c1,inactive: 0%
23,CCOC(=O)N1CCN(C(=O)COC(=O)CSc2ccc([N+](=O)[O-])cc2)CC1,active: -51.5%

# Molecules above containing a furan ring, fused or not, in the order listed:
row,Structure (SMILES),"max response, negative = inhibition"
4,O=C(Nc1cccnc1)c1ccc(COc2cc(Cl)ccc2Cl)o1,inconclusive: -34.6%
8,Cc1occc1C(=O)N1CCN(C(c2ccccc2)c2ccccc2)CC1,inconclusive: -35.7%

# Later entries

row,Structure (SMILES),"max response, negative = inhibition"
1,CCCCCOc1ccc2oc(=O)c3c(c2c1)CCCN3C(=O)CN1CCCC(C(=O)OCC)C1 (stereo unspecified),inconclusive: -48.9%
2,CCOC(=O)C1=C(C)NC(=O)CC1c1cc2c(cc1Br)OCO2 (stereo unspecified),active: -51.1%
3,CC1CCCN(CC(=O)Nc2cccc([N+](=O)[O-])c2)C1 (stereo unspecified),inactive: 0%
4,COc1cc(CNc2nc3ccccc3[nH]2)cc(OC)c1OC,inconclusive: -37.5%
5,COc1ccc(C(=O)NC2CC2)cc1OC1CCN(Cc2cnn(C)c2C)CC1,inconclusive: -41.6%
6,C/C(CCC12CC3CC(CC(C3)C1)C2)=N\NC(N)=S,inconclusive: -31.1%
7,Cc1ccc(S(=O)(=O)Oc2ccccc2[N+](=O)[O-])cc1,inconclusive: -31.5%
8,CN(C(=O)c1ccc2c(c1)CCO2)C(C)(C)C,inactive: -5.64%
9,CCOC(=O)CSc1nc(N2CCOCC2)c2c(c1C#N)CC(C)(C)N(C)C2,inconclusive: -46.4%
10,CC1(C)C(c2ccccc2)=NC(c2ccccc2)N1O (stereo unspecified),inconclusive: -36.5%
11,C=CCn1c(SCC#N)nnc1-c1ccc2ncccc2c1,inactive: -11.8%
12,CC1CCc2c(nc3ncnn3c2NCCN(C)C)C1 (stereo unspecified),inconclusive: -30.7%
13,O=C(N/N=C/c1cc([N+](=O)[O-])cc([N+](=O)[O-])c1O)/C(=C\c1cccs1)NC(=O)c1ccccc1,inconclusive: -41.1%
14,Cc1nnc(SCC(=O)N2CCN(S(=O)(=O)c3ccccc3)CC2)[nH]c1=O,inconclusive: -49.4%
15,Cc1ccc(NC2=CC(=O)C(=O)c3ccccc32)cc1,inconclusive: -37.9%
16,COc1ccc(N=Cc2cc(Cc3ccccc3Cl)cc([N+](=O)[O-])c2O)cc1OC,active: -96.1%
17,CS(=O)(=O)c1sc(C#N)c2c1C(=O)CC(c1ccccc1)C2 (stereo unspecified),active: -132%
18,O=C(CN1CCC(O)(c2ccccc2)CC1)Nc1ccc2c(c1)OCCO2,active: -57.9%
19,O=[N+]([O-])c1ccc(N2CCN(C(=S)NCc3ccc(Cl)cc3)CC2)cc1,active: -53%
20,Cc1cc(C(=O)Nc2ccccc2C)n(-c2ccccc2)n1,inconclusive: -34.5%
21,CCCCNc1nnc(SCC(=O)c2c(N)n(CCC)c(=O)[nH]c2=O)s1,inactive: 2.13%
22,O=C(C1=NN(c2ccccc2)C2C(=O)N(c3ccc(Cl)cc3)C(=O)C12)c1ccccc1 (stereo unspecified),inactive: 22.7%
